Test results as given in patent US20260027116A1, “Methods of Treating Chronic Graft-Versus-Host Disease Following Allogeneic Hematopoietic Stem Cell Transplantation” (Kadmon Corporation, LLC, priority 2022, published 2026).
For at least one compound, name, drawing or mass did not settle the structure.

How the values were obtained:
[1] = test system: peripheral blood mononuclear cells; test: Example 1: PD analyses of peripheral blood mononuclear cells (Tregs, Th17); type: in vivo, human
[2] = test system: chronic graft-versus-host disease (cGVHD); test: Example 2 phase II randomized study: response per 2014 NIH criteria (best ORR, DOR, TTR, FFS, OS); type: in vivo, human
Experimental: (§1) All responses were assessed by the study site investigators.
Here, we report data from the 12-month analysis.

cGVHD symptom burden = test: Example 1: Lee Symptom Scale (LSS) score; type: in vivo, human
Experimental: Lee Symptom Scale (LSS) summary score measures the effect on patients' functioning and well-being. The Lee Symptom Scale is a 30-item scale developed to measure the symptoms of cGVHD and is described in Lec S J, Cook E F, Soiffer R, Antin J H. Development and validation of a scale to measure symptoms of chronic graft-versushost disease. Biol Blood Marrow Transplant 2002; 8:444-452.
(§2) All responses were assessed by the investigators.
Change From Baseline in Overall Score on Lee cGvHD Symptom Scale at Specified Time Points. Lee cGVHD symptom scale, a patient-reported symptom scale used to measure symptom burden and has 7 subscales (Skin, Eyes and Mouth, Breathing, Eating and Digestion, Muscles and Joints, Energy, and Mental and Emotional) with ratings as follows: 0—Not at all, 1—Slightly, 2—Moderately, 3—Quite a bit, 4—Extremely, with lower values representing better outcome. Score for each subscale was normalized to a score ranged from 0 to 100, where higher score=worse symptoms. An overall score was calculated as average of these 7 subscales. EOT visit was performed within 3 days after the participant's last dose of study drug. […] Here, ‘number analyzed’=participants with available data for each specified category. Here, ‘0’ in the number analyzed field signifies that none of the participants were available for the analysis at the specified time points.

human T cell = test: ex-vivo or in vitro human T cell assays (STAT3/STAT5 phosphorylation, Th17/Treg balance); type: cell-based
[3] = test system: chronic graft-versus-host disease (cGVHD); test: Example 1 phase IIa study: response per 2014 NIH cGVHD criteria (ORR, BOR, DOR, TTR, TTNT, FFS, OS, organ response); type: in vivo, human
From the text: Eligible patients were allogeneic bone marrow transplant or allogeneic hematopoietic cell transplant (alloHCT) recipients of age≥18 years with persistent cGVHD manifestations after having received one to three prior systemic lines of therapy and who were receiving corticosteroid treatment with or without a calcincurin inhibitor and/or concurrent extracorporeal photopheresis.
Inclusion criteria. Adult male and female subjects at least 18 years of age who had allogenic bone marrow transplant or hematopoietic stem cell transplantation. Received glucocorticoid therapy and calcineurin therapy or glucocorticoid therapy alone for cGVHD at study entry. Participants on calcineurin therapy only, without glucocorticoid therapy, were not eligible. Participants also received other therapies thought not to be immunosuppressive (such as extracorporeal photopheresis; ECP), were considered for enrollment in this study on a case-by-case basis. […] No more than 3 prior lines of treatment for cGVHD. Karnofsky Performance Scale of greater than (>) 40.
Exclusion Criteria. Participant who was pregnant or breastfeeding. Received an investigational GVHD treatment within 28 days of study entry. Had acute GVHD. Taken any medication known to be a moderate or strong inhibitor of the cytochrome (CY) P3A4 isozyme or any drugs that are moderate or strong CYP3A4 inducers. History or other evidence of severe illness or any other conditions that would make the participant, in the opinion of the investigator, unsuitable for the study (such as poorly controlled psychiatric disease or coronary artery disease). Regular and excessive use of alcohol within the 6 months prior to study entry defined as alcohol intake>14 drinks per week in a man or >7 drinks per week in a woman. Approximately 10 grams of alcohol equals one “drink” unit. One unit equals 1 ounce of distilled spirits, one 12-ounce beer, or one 4-ounce glass of wine. Known history of human immunodeficiency virus or active hepatitis C virus or hepatitis B virus. Diagnosed with another malignancy (other than malignancy for which transplant was performed) within 3 years of enrollment, with the exception of completely resected basal cell or squamous cell carcinoma of the skin, resected in situ cervical malignancy, resected breast ductal carcinoma in situ, or low-risk prostate cancer after curative resection. Relapse of the underlying cancer or post-transplant lymphoproliferative disease at the time of screening. […] Taken other immunosuppressant drugs for GVHD, including mammalian target of rapamycin inhibitors (Note: Only steroids, calcineurin inhibitors, and ECP are acceptable). Corrected QT interval using Fridericia's formula >450 milliseconds.
(FIG. 1) Before enrollment of the subsequent cohort, safety data in each previous cohort were analyzed after eight patients reached two months of treatment to assure that there was no safety signal. […] No safety concerns were identified, allowing for planned dose escalation.
Progression was defined per the 2014 NIH cGVHD Consensus Criteria. Long-term follow-up was conducted every 8 weeks until study closeout. […] Screening was conducted within 28 days of the first study dose. Response was initially assessed after two cycles; however, this was amended to evaluate response on day 1 of each cycle, starting at cycle 2 day 1.
as §2
Assuming a best ORR of 25%, which was determined to be clinically meaningful, the study was expected to have approximately 90% probability to show a response in ≥2 patients per cohort. This study was not powered to show significant differences between cohorts with respect to efficacy, AEs, or PD analyses. The primary analysis was conducted using the safety population, defined as enrolled patients who received ≥1 dose of study medication. The Clopper-Pearson (exact) method was used to construct the two-sided 95% CI for ORR. The Kaplan-Meier (K-M) method was used to calculate estimates of FFS and OS. […]

cGVHD [4] = test: Example 2: corticosteroid and other immunosuppressant reduction; type: in vivo, human
Experimental: as §1

pro-fibrotic signaling = test: aberrant pro-fibrotic signaling in vitro; type: cell-based
cGVHD [5] = conditions: cGVHD after failure of prior therapy; cited from earlier work

CC(C)NC(=O)COc1cccc(-c2nc(Nc3ccc4[nH]ncc4c3)c3ccccc3n2)c1 [Belumosudil, 2-{3-[4-(1H-indazol-5-ylamino)-2-quinazolinyl]phenoxy}-N-(propan-2-yl) acetamide]
percentage of CD41 Tregs ([1]; by cycle 2 day 1, continued through C4D1 and C7D1): increasing trend | Th17 cells ([1]; continued through C4D1 and C6D25): decrease | additional subjects with lung PR ([2]; Example 2): Six | responses occurring within 6 months of treatment ([2]; Example 2): Ninety-one | skin responses by investigator's clinical assessment only ([2]; Example 2): Two | CR by organ system ([2]; Example 2, mITT (FIG. 9)): CR was seen across all affected organs | clinically meaningful LSS improvement on consecutive assessments, all patients (cGVHD symptom burden): Thirty-five | proinflammatory responses via STAT3/STAT5 phosphorylation and Th17/Treg balance (human T cell): down-regulated proinflammatory responses | organ-specific complete response ([3]; Example 1): CR was observed in all organs except the lungs | responses occurring after 24 weeks of treatment ([3]; Example 1): Four of 35 | partial responses in lung (best response by organ) ([3]; Example 1, 400 mg once daily): three | patients with joint progression whose P-ROM fell by just one unit ([3]; Example 1, of 11 patients): seven | organ-specific complete response ([3]; Example 1, listed as belumosudil): CR was achieved across all affected organs, with the exception of the lungs | ORR subgroup refractory to previous LOT, n/N ([3]; Total, N=54): 22 of 35 | ORR subgroup severe cGVHD, n/N ([3]; Total, N=54): 25 of 42 | ORR subgroup ≤2 prior LOTs, n/N ([3]; Total, N=54): 23 of 35 | ORR subgroup ≤4 organs involved, n/N ([3]; Total, N=54): 19 of 27 | subjects who discontinued corticosteroid therapy (cGVHD [4]): Twenty-one | aberrant pro-fibrotic signaling (pro-fibrotic signaling): inhibited aberrant pro-fibrotic signaling

C=CC(=O)N1CCC[C@@H](n2nc(-c3ccc(Oc4ccccc4)cc3)c3c(N)ncnc32)C1 [ibrutinib]
overall response rate (ORR) (cGVHD [5]): 67%
